Assay results taken from patent US20250388687A1.
Positions count from the first letter of the chain named. Results are given in words; binding and its absence hold for the method and conditions named. Some binding calls cover weakened binding; strength is not graded here.

Protein sequences, listed by entry. Tags and fused reporters are not part of them. Residues count along the entry.
UniProt P32927, residues 17-443: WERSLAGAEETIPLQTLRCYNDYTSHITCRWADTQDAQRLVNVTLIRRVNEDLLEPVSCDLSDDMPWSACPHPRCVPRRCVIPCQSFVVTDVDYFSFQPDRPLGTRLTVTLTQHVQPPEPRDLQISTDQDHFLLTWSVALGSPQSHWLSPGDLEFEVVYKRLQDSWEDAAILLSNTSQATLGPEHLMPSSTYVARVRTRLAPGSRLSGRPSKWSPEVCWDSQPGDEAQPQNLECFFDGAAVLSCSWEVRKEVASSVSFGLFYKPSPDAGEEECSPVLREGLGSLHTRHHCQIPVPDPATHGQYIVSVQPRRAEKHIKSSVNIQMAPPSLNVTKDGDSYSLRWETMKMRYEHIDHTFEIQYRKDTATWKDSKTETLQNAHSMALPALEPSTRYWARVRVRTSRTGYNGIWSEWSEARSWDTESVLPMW

B1: EPOR/CD131 binder, HC SEQ ID NO 1729 / LC SEQ ID NO 1865 (antibody, V domains shown)
VH: QVQLVQSGAEVKKPGASVKVSCKASGYIFSNYGICWVRQAPGQGLEWMGWINPYNVNRNYAQSLQGRVTMTTDTSTNSAYMELRSLKSDDTAVYFCARGVWGSYRSHSYYTFMDVWGKGTTVTVSS
VL: SYELTQPSSVSVSPGQAARITCSGNLLAKKYPRWFLQKPGQAPIMLTHTDCERPSGIPERFSGSSSGTTVTLTISGAQVEDEADYYCFSAADNTSVFDGGTNLTVL
B2: EPOR/CD131 binder, HC SEQ ID NO 1717 / LC SEQ ID NO 1853 (antibody, V domains shown)
VH: EVQLVESGGGLVKPGGSLRLSCAASGFTFRNAWMSWVRQAPGKGLEWVGRIKTKTDGGATQYAAPVKGRFTISRDDSKNTLYLQMNSLKTEDTAVYYCTTDHIEYSSLYYFDYWGQGTLVTVSS
VL: QSVLTQSPSASGTPGQRVTISCSGSNSNIGFNTVNWYQQLPGTAPKLLIDSNNQRPSGVPDRFSGSTSGTSASLAISGLQSEDEADYYCSSYAGSNNFVFGTGTKVTVL
B3: EPOR/CD131 binder, HC SEQ ID NO 1734 / LC SEQ ID NO 1870 (antibody, V domains shown)
VH: QLQLQESGPGLVKPSETLALTCTVSGGSISSIIYYWGWIRQPPGKGLEWIGNVYYSGSIYYNPSLKSRVTISVDTSKNQFSLKLSSVTAADTAVYYCARQNWGSDAFDIWGQGTMVTVSS
VL: SYELTQPLSLSVALGQTARITCGENNIGSRNVHWYQQKPGQAPVLVIYRDSDRPSGIPERFSGSNSGNTATLTISRAQAGDEADYFCQVWDSSTAVFGGGTKLTVL
B4: EPOR/CD131 binder, HC SEQ ID NO 1719 / LC SEQ ID NO 1855 (antibody, V domains shown)
VH: QVQLQQSGPGLVKPSQTLSLTCAISGDSVSSNSAAWNWIRQSPSRGLEWLGRTYYRSKWYNDYAVSVKSRITINPDTSKNQFSLQLNSVTPEDTAVYYCAREAYWNYGGFDYWGQGTLVTVSS
VL: QSALTQPPSASGSPGQSVTISCTGTSSDVGGYNYVSWYQQHPGKAPKLMIYEVSKRPSGVPDRFSGSKSGNTASLTVSGLQAEDEADYYCSSYAGSNNFGVFGGGTKLTVL
B5: EPOR/CD131 binder, HC SEQ ID NO 1724 / LC SEQ ID NO 1860 (antibody, V domains shown)
VH: EVQLVESGGGLVQPGGSLRLSCAASGFTFSSYWMSWVRQAPGKGLEWVANIKQDGSEKYYVDSVKGRFTISRDNAKNSLYLQMNSLRAEDTAVYYCARTPGYSSSWYEGPYFDYWGQGTLVTVSS
VL: SYELTQPPSVSVSPGQTARITCSGDALPKKYAYWYQQKSGQAPVLVIYEDSKRPSGIPERFSGSSSGTMATLTISGAQVEDEADYYCYSTDSSGNHVVFGGGTKLTVL
B6: EPOR/CD131 binder, HC SEQ ID NO 1731 / LC SEQ ID NO 1867 (antibody, V domains shown)
VH: QVQLVQSGAEVKKPGASVKVSCKASGFTFTSYYIHWVRQAPGQGLEWMGIITPSGGTTSYAQKFQGRVTMTRDTSTSTVYMELSSLRSEDTAVYYCARRVLWFGELRDYFYYMDVWGKGTTVTISS
VL: B5 VL with Y35F, T73I
B7: EPOR/CD131 binder, HC SEQ ID NO 1727 / LC SEQ ID NO 1863 (antibody, V domains shown)
VH: QVQLQQWGAGLLKPSETLSLTCAVYGGSFSGHYWNWIRQPPGKGLEWIGEINHSGFTNYNPSLKSRVTISVDTPKNQFPLNLSSVTAADTAVYYCAREGLTGHVFDIWGQGTMVTVSS
VL: QTVVTQEPSLTVSPGGTVTLTCASSTGAVTSGYYPNWFQQKPGQAPRALIYSTSNKHSWTPARFSGSLLGGKAALTLSGVQPEDEAEYYCLLYYGGAQVFGGGTKLTVL
B8: EPOR/CD131 binder, HC SEQ ID NO 1720 / LC SEQ ID NO 1856 (antibody, V domains shown)
VH: EVQLVESGGGLVKPGGSLKLSCAASGFTFSSYSMNWVRQAPGKGLEWVSSISSSSSYIYYADSVKGRFTISRDNAKNSLYLQMNSLRAEDTAVYYCARDGRITMVRGVRNWFDPWGQGTLVTVSS
VL: SYELTQPPSVSVSPGQTANITCSGDKLGNKYACWYQQKPGQSPVLVIFQDNKRPSGIPERFSGSNSGNTATLTIGGTQAMDEADYYCQAWDSSTVVFGGGTKVTVL
B9: EPOR/CD131 binder, HC SEQ ID NO 1730 / LC SEQ ID NO 1866 (antibody, V domains shown)
VH: EVQLVESGGGLVKPGGSLRLSCAASGFTFSSYSMNWVRQAPGKGLEWVSSISSSSSYIYYADSVKGRFTISRDNAKNSLYLQMNSLRAEDTAVYYCARDYRPYYDILTGYSHFDYWGQGTLVTVSS
VL: SSELTQDPAVSVALGQTVRITCQGDSLRSYYASWYQQKPGQAPVLVIYGKNNRPSGIPDRFSGSSSGNTASLTITGAQAEDEADYYCNSRDSSGNHVVFGGGTKLTVL
B10: EPOR/CD131 binder, HC SEQ ID NO 1735 / LC SEQ ID NO 1871 (antibody, V domains shown)
VH: QVQLQQWGAGLLKPSETLSLTCAVYGGSFSGYYWSWIRQPPGKGLEWIGEINHSGNTNYNPSLKSRVTISVDTSKNQFSLKLSSVTAADTAVYYCARGELGIGYWYFDLWGRGTLVTVSS
VL: B9 VL
B11: EPOR/CD131 binder, HC SEQ ID NO 1738 / LC SEQ ID NO 1874 (antibody, V domains shown)
VH: QVQLVQSGAEVKKPGASVKVSCKASGYTFITYGISWVRQAPGQGLEWMGWISSYNGNTNYAQKLQGRVTMTRDTSTSTAYMELRSLRSDDTAVYYCARAPGGDCSSTSCYKWNYDPYYFDYWGQGTLVTVSS
VL: QSALTQPASVSGSPGQSITISCTGTSSDVGGYNHVSWYQQNPGKAPKLMIYDVSKRPSGVSNRFSGSKSGNTASLTISGLQAEDEADYYCCSYAGSSTLVFGGGTKLTVL
B12: EPOR/CD131 binder, HC SEQ ID NO 1718 / LC SEQ ID NO 1854 (antibody, V domains shown)
VH: QVQLVQSGAEVKKPGASVKVSCKASGYTFTSYGISWVRQAPGQGLEWMGWISAYNGNTNYAQKLQGRVTMTTDTSTSTAYMELRSLRSDDTAVYYCARQLAYCGGDCYLYFDYWGQGTLVTVSS
VL: QSALTQPPSASGSPGQSVTISCTGTSSDVGGYNYVSWYQQHPGKAPKLMIYEVSKRPSGVPDRFSGSKSGNTASLTVSGLQAEDEADYYCSSYAGSNNLVFGGGTKLTVL
B13: EPOR/CD131 binder, HC SEQ ID NO 1732 / LC SEQ ID NO 1868 (antibody, V domains shown)
VH: QMQLQESGPGLVRPSETLSLTCTVSGGSISTRSYYWGWIRQPPGKGLEWIGSVFYSGSTYYNPSLKSRVAISVDTSKNQFSLKVNSVTAADTAVFYCVRQGYDSWTGYSFFYFDYWGQGTLVTVSS
VL: B12 VL
B14: EPOR/CD131 binder, HC SEQ ID NO 1728 / LC SEQ ID NO 1864 (antibody, V domains shown)
VH: QVQLQQWGAGLLKPSETLSLTCAVYGGFLRGYYWSWIRQPPGKGLEWIGEINHSGSTNYNPSLKSRVTISVDTAENQFSLKLNSVTAADTAVYYCAREGLTGHTFDIWGQGTMVTVSS
VL: B11 VL with H34Y, N41H, L99V
B15: EPOR/CD131 binder clonotype 17 (antibody, V domains shown)
VH: EVQLVESGGGLVQPGGSLRLSCAASGFTFSSYDMHWVRQATGKGLEWVSAIGTAGDTYYPGSVKGRFTISRENAKNSLYLQMNSLRAGDTAVYYCARDSSSWYEDAFDIWGQGTMVTVSS
VL: B3 VL with L10V, E24G, R30K, D52N, F86Y, A95V
B16: EPOR/CD131 binder clonotype 22 (antibody, V domains shown)
VH: EVQLVESGGGLVKPGGSLRLSCAVSGFTFSTDSMNWVRQAPGKGLEWVSSISGSSSYIYYTDSVKGRFTISRDNAKNSLFLQMNSLRAEDTAVYYCARDWGSFDLWGRGTLVTVSS
VL: B5 VL with V97W
B17: EPOR/CD131 binder clonotype 32 (antibody, V domains shown)
VH: QLQLQESGPGLVKPSETLSLTCTVSGGSISSSSYYWGWIRQPPGKGLEWIGSIYYSGSTYYNPSLKSRVTISVDTSKNQFSLKLSSVTAADTAVYYCARHDPSFDYWGQGTLVTVSS
VL: LPVLTQPPSASALLGASIKLTCTLSSEHSTYTIEWYQQRPGRSPQYIMKVKSDGSHSKGDGIPDRFMGSSSGADRYLTFSNLQSDDEAEYHCGESHTIDGQVGVVFGGGTKLTVL
B18: EPOR/CD131 binder clonotype 14 (antibody, V domains shown)
VH: QLQLQESGPGLVKPSETLSLTCTVSGGSISSSSYYWGWIRQPPGKGLEWIGSIYYSGSTYYNPSLKSRVTISVDTSKNQFSLKLSSVTAADTAVYYCARQTDYWFDPWGQGTLVTVSS
VL: B11 VL with H34Y, N41H
B19: EPOR/CD131 binder clonotype 15 (antibody, V domains shown)
VH: EVQLVESGGGLVRPGGSLRLSCAASGFTFSSYSIHWVRQAPGKGLEWVSSISSSSTYIYYADSLKGRFTISRDNAKNSLYLQMNSLRAEDTAVYYCAREGGIAVAGFDYWGQGTLVTVSS
VL: B11 VL with H34Y, N41H, D52E, K55N, C91S, A94T, G95S
B20: EPOR/CD131 binder clonotype 19 (antibody, V domains shown)
VH: EVQLVESGGGLVKPGGSLRLSCAASGFTFSDYYMSWIRQAPGKGLEWVSYISSSGSTIYYADSVKGRFTISRDNAKNSLYLQMNSLRAEDTAVYYCAREETMVRGVIAYWGQGTLVTVSS
VL: B11 VL with H34Y, N41H, D52E, K55N, C91S, A94T, G95S, L99V
B21: EPOR/CD131 binder clonotype 29 (antibody, V domains shown)
VH: EVQLVESGGGLIQPGGSLRLSCAASGFTVSSNYMSWVRQAPGKGLEWVSVIYSGGSTYYADSVKGRFTISRDNSKNTLYLQMNSLRAEDTAVYYCARDGGEYSSSYYFDYWGQGTLVTVSS
VL: B12 VL with L99V

Each binder was assayed against hCD131-Fc (IME021) (human) (UniProt P32927) (assay: B cells sorted with labelled hEPOR-Fc and hCD131-Fc, then sequenced).

binding, binds:
B1
B2
B3
B4
B5
B6
B7
B8
B9
B10
B11
B12
B13
B14

The binders below were run against hCD131-Fc (IME021, in house) (human) (UniProt P32927) (assay: B-cell sort with labelled hEPOR-Fc and hCD131-Fc).

binding, binds:
B15
B16
B17
B18
B19
B20
B21
